Assay results as given in publication PMC4451243.
No constants are given. Whether binding was seen depends on the method and setting. In cells and extracts the contact can be indirect. A yes stands for co-enrichment or nearness to the bait. Other partners may have been found.

Sequences of proteins named here, by UniProt entry; tags and fusion partners are left off.
UniProt Q03468: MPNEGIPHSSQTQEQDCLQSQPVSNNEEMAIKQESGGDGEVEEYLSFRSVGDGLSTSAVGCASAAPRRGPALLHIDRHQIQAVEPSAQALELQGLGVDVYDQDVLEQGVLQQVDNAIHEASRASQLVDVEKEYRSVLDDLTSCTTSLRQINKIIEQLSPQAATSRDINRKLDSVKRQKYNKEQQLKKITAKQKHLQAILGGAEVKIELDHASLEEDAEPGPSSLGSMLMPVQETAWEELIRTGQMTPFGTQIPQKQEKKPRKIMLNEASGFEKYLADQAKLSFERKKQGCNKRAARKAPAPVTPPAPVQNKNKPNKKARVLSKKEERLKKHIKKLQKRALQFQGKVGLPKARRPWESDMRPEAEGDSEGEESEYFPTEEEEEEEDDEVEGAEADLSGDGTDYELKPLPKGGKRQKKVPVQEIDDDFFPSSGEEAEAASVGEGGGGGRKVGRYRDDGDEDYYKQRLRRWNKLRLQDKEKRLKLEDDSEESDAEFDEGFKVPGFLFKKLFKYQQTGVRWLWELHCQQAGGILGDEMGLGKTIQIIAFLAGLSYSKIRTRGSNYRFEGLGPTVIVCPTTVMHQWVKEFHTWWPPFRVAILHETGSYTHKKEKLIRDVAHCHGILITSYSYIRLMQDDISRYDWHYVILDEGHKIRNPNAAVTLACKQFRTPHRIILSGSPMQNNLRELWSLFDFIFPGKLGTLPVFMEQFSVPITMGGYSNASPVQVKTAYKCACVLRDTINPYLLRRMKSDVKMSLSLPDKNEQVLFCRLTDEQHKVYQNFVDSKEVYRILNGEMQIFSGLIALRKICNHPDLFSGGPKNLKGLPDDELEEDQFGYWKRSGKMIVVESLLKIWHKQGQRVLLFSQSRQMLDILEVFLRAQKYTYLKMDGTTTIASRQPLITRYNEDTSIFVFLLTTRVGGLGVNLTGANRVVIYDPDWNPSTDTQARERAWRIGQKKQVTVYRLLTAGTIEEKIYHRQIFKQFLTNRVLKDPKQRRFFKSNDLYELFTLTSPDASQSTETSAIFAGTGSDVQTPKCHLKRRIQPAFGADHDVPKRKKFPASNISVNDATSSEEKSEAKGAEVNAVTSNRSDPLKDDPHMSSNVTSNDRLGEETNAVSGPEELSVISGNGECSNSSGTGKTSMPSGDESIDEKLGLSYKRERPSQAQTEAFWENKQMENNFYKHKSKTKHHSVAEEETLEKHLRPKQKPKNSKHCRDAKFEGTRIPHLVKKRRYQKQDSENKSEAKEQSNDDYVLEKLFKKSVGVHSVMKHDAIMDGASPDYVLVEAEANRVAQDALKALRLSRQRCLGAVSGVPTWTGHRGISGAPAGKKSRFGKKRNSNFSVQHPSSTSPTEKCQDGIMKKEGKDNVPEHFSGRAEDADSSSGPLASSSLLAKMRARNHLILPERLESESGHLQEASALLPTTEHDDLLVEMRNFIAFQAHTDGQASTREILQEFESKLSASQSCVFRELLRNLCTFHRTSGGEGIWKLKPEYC
UniProt Q09028: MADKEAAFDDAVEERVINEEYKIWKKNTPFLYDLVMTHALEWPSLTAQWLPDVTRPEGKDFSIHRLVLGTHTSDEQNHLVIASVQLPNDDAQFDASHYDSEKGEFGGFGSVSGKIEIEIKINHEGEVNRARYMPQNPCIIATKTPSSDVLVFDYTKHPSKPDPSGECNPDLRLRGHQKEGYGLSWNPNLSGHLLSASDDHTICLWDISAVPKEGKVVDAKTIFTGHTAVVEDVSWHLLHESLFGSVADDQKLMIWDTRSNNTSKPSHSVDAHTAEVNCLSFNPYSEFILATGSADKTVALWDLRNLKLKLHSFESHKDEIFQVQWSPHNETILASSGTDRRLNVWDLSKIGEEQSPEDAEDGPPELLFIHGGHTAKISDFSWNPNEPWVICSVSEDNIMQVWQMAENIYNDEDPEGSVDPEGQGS
UniProt O00571: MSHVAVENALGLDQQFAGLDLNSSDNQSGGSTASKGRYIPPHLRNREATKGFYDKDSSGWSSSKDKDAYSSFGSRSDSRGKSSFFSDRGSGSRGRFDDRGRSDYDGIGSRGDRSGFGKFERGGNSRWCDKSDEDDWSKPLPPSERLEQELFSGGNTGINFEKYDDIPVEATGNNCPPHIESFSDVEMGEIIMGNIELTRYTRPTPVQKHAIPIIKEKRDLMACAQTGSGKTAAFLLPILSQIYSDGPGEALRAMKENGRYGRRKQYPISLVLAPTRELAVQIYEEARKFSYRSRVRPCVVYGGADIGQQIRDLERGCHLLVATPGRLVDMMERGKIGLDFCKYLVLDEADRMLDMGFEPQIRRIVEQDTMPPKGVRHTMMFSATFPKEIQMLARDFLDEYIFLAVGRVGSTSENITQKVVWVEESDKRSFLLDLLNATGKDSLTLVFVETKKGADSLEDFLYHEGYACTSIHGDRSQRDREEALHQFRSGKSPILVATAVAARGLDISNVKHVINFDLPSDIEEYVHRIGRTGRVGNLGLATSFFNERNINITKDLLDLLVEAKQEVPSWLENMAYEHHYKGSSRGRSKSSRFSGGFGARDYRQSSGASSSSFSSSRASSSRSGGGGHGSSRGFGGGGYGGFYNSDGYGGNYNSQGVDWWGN
UniProt Q13547: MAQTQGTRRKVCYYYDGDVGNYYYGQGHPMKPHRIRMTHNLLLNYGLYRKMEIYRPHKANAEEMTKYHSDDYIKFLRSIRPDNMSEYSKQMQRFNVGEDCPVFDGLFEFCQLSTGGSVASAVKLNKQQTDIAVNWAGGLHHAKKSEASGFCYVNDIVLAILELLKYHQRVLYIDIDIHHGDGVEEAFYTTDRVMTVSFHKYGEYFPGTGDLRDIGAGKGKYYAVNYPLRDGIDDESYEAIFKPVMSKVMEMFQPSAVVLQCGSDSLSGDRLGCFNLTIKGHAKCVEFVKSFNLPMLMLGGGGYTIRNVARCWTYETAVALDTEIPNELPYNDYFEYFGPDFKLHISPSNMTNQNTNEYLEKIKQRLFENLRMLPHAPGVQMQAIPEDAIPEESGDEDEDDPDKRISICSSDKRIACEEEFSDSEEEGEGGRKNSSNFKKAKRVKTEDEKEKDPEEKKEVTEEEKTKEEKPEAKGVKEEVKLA
UniProt P51532: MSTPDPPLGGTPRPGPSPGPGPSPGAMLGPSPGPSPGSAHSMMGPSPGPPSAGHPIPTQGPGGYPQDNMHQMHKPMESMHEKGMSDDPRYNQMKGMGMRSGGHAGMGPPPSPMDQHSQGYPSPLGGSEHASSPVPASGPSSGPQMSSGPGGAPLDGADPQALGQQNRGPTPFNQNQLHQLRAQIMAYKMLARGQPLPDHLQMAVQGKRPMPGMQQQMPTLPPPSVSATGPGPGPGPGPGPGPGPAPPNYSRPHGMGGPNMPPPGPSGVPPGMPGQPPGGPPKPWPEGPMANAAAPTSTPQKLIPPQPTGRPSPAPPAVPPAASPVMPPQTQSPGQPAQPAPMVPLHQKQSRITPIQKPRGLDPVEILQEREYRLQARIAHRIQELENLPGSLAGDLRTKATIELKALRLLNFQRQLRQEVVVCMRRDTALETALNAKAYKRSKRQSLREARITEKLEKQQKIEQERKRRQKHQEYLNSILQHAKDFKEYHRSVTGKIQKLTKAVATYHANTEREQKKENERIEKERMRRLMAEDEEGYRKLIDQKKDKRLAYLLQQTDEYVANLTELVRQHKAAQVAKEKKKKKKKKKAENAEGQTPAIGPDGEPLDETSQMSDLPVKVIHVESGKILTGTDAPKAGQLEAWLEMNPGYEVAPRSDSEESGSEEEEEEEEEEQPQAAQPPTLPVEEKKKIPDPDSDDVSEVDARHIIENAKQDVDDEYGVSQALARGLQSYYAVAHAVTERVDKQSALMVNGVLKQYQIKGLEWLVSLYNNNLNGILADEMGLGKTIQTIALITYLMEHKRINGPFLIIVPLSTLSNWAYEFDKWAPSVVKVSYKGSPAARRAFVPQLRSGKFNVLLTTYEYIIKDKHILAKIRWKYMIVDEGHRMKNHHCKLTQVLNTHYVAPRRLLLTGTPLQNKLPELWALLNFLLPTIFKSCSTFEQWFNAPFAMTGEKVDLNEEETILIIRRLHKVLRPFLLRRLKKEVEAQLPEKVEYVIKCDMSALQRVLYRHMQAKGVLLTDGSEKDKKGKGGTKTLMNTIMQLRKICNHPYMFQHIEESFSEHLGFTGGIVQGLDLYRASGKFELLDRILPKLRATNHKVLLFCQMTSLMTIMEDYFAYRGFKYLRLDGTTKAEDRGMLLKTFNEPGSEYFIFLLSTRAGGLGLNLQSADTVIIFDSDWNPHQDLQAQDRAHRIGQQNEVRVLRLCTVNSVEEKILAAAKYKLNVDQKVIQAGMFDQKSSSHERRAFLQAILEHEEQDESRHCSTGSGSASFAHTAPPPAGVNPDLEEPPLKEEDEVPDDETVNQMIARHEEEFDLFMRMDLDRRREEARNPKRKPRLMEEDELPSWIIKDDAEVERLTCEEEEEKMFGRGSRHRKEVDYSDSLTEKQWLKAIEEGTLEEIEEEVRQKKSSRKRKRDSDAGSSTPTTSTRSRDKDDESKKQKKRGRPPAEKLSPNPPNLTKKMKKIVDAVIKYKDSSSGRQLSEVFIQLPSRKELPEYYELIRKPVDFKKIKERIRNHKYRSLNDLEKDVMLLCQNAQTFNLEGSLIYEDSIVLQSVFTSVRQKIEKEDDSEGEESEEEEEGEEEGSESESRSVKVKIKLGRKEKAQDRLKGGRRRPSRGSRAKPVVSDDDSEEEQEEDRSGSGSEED
UniProt Q92841: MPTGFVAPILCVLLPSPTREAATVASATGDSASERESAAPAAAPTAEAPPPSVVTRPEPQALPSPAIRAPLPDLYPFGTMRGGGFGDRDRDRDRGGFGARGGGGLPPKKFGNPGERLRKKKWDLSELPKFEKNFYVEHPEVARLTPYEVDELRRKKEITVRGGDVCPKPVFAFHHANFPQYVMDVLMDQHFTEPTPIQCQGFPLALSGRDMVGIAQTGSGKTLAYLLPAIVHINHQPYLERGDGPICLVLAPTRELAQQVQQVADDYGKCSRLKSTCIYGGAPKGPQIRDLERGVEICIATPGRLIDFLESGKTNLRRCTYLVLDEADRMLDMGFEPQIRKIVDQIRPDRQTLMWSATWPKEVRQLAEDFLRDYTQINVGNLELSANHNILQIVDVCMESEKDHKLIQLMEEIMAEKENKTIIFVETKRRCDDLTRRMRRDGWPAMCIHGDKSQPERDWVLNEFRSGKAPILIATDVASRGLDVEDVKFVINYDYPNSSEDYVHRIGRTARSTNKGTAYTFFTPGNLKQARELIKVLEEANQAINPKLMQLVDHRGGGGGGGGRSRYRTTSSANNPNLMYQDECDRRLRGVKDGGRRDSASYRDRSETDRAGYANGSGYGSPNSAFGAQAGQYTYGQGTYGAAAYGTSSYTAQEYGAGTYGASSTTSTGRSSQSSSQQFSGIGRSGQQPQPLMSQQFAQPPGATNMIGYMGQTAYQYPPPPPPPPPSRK
UniProt Q93009: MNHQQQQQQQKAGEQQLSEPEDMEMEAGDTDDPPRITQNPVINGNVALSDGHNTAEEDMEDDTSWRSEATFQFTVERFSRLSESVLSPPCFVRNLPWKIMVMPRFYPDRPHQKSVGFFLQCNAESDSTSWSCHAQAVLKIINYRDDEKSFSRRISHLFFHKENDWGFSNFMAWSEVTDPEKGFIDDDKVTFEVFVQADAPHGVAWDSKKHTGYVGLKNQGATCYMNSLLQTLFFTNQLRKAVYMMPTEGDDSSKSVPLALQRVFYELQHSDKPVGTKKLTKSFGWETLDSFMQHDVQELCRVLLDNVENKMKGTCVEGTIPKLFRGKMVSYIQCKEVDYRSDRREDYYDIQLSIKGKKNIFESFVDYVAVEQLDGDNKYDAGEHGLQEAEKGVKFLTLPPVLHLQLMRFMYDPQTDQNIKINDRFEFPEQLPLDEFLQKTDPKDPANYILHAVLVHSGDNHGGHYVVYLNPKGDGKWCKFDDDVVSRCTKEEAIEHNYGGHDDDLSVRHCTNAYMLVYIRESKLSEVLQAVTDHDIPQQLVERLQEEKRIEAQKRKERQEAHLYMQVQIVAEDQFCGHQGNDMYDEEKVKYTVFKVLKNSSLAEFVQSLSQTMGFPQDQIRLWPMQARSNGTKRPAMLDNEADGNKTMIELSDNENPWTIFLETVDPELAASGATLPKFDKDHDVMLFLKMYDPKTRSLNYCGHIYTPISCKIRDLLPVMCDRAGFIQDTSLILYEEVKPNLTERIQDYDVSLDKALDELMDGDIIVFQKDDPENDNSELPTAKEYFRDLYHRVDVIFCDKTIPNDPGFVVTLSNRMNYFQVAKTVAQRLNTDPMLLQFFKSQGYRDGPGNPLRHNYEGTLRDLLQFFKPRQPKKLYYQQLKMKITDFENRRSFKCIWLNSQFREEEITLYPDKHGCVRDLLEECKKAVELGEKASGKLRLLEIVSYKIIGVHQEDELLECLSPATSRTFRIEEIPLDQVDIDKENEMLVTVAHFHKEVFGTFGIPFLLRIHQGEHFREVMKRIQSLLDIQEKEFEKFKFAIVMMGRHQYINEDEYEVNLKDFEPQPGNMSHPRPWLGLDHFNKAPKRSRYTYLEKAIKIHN

B1: PRPF3 (protein, UniProt O43395 1-683)
chain: MALSKRELDELKPWIEKTVKRVLGFSEPTVVTAALNCVGKGMDKKKAADHLKPFLDDSTLRFVDKLFEAVEEGRSSRHSKSSSDRSRKRELKEVFGDDSEISKESSGVKKRRIPRFEEVEEEPEVIPGPPSESPGMLTKLQIKQMMEAATRQIEERKKQLSFISPPTPQPKTPSSSQPERLPIGNTIQPSQAATFMNDAIEKARKAAELQARIQAQLALKPGLIGNANMVGLANLHAMGIAPPKVELKDQTKPTPLILDEQGRTVDATGKEIELTHRMPTLKANIRAVKREQFKQQLKEKPSEDMESNTFFDPRVSIAPSQRQRRTFKFHDKGKFEKIAQRLRTKAQLEKLQAEISQAARKTGIHTSTRLALIAPKKELKEGDIPEIEWWDSYIIPNGFDLTEENPKREDYFGITNLVEHPAQLNPPVDNDTPVTLGVYLTKKEQKKLRRQTRREAQKELQEKVRLGLMPPPEPKVRISNLMRVLGTEAVQDPTKVEAHVRAQMAKRQKAHEEANAARKLTAEQRKVKKIKKLKEDISQGVHISVYRVRNLSNPAKKFKIEANAGQLYLTGVVVLHKDVNVVVVEGGPKAQKKFKRLMLHRIKWDEQTSNTKGDDDEESDEEAVKKTNKCVLVWEGTAKDRSFGEMKFKQCPTENMAREHFKKHGAEHYWDLALSESVLESTD
B2: CSTF1 (protein, UniProt Q05048 1-431)
chain: MYRTKVGLKDRQQLYKLIISQLLYDGYISIANGLINEIKPQSVCAPSEQLLHLIKLGMENDDTAVQYAIGRSDTVAPGTGIDLEFDADVQTMSPEASEYETCYVTSHKGPCRVATYSRDGQLIATGSADASIKILDTERMLAKSAMPIEVMMNETAQQNMENHPVIRTLYDHVDEVTCLAFHPTEQILASGSRDYTLKLFDYSKPSAKRAFKYIQEAEMLRSISFHPSGDFILVGTQHPTLRLYDINTFQCFVSCNPQDQHTDAICSVNYNSSANMYVTGSKDGCIKLWDGVSNRCITTFEKAHDGAEVCSAIFSKNSKYILSSGKDSVAKLWEISTGRTLVRYTGAGLSGRQVHRTQAVFNHTEDYVLLPDERTISLCCWDSRTAERRNLLSLGHNNIVRCIVHSPTNPGFMTCSDDFRARFWYRRSTTD

What follows are molecules tested against CSB-TAP fusion protein (human) (UniProt Q03468) (assay: affinity purification with mass spectrometry; tandem affinity purification of CSB-TAP from extracts of stably transfected CSIAN cells (IPP150 lysis buffer: 50 mM Tris pH 8.0, 150 mM NaCl, 10% glycerol, 0.1% NP-40); IgG sepharose, TEV elution, calmodulin beads, 4°C; bound proteins on a 4-12% Bis-Tris gel, LC-MS/MS; no exogenous DNA damage).
For SMARCA2 (from UniProt P51531 1-1590), the binding was “binds”.
For CUL7 (from UniProt Q14999 1-1698), the binding was “binds”.
“Topoisomerase I (from UniProt P11387 1-765)” was tested, and the binding was “binds”.
For RBBP4 (from UniProt Q09028 1-425), the binding was “binds”.
SMARCA1 (from UniProt P28370 1-1042) was tested, and the binding was “binds”.
With DDX23 (from UniProt Q9BUQ8 1-820) the binding was “binds”.
With PSMD3 (from UniProt O43242 1-534) the binding was “binds”.
For DDX3X (from UniProt O00571 1-662), the binding was “binds”.
In the case of DDX5 (from UniProt P17844 1-614), the binding is reported as “binds”.
In the case of “histone deacetylase 1 (from UniProt Q13547 1-482)”, the binding is reported as “binds”.
XRCC5 (from UniProt P13010 1-732) was tested, and the binding was “binds”.
For SMARCA5 (from UniProt O60264 1-1052), the binding was “binds”.
In the case of SMARCA4 (from UniProt P51532 1-1647), the binding is reported as “binds”.
For DDX17 (from UniProt Q92841 1-729), the binding was “binds”.
For USP7 (from UniProt Q93009 1-1102), the binding was “binds”.

Molecular target: CSB-TAP fusion protein (human) (UniProt Q03468)
Test: as above
Remark: another data set of the same source
In the case of B1, the binding is reported as “binds”.
In the case of B2, the binding is reported as “binds”.
